{"source": "PubChem BioAssay AID1347076", "about": "(National Center for Advancing Translational Sciences (NCATS), 2019)", "note": "“And” between values parts separate entries of the source, which are not always exact repeats. Identical values can stand only once. In all, about 400,000 compounds went through this assay and about 13,000 (3.2%) were called active. Inconclusive results, whose numbers are uncertain, are shown with a selection of clear calls. Calls come from the whole dose curve; as a rule, active = well fitted cell-killing curve with a large enough effect; inconclusive = small, poorly fitted or top-dose-only effect, or effect the other way; inactive = flat fitted curve, though single readings scatter. A potency beside an inconclusive call is a rough fit, not a confirmed value. % is set by controls: 0 for no effect and ±100 for the full control effect; potency is the fitted concentration of half-maximal effect."}
{"experiment": "qHTS assay for MDR1-selective chemotherapeutics: Primary screen using the drug-selected MDR subline cells KB-V1; note: nearly all actives have a fitted effect of over 60% in size", "details": "KB-V1 MDR cells viability, CellTiter-Glo, 72 h; activity change, negative = cytotoxicity: at 46.1 µM (top of the series)", "how_it_was_run": "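Cytotoxicity toward P-gp-expressing KB-V1 cells was determined as loss of CellTiter-Glo luminescence after 72 h at 37 degrees C. Compounds were tested in quantitative HTS format across a concentration range, with curves fitted to normalized data.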"}
{"smiles": "Cc1c(NC(=O)c2cc(-c3ccc(F)cc3)on2)c(=O)n(-c2ccccc2)n1C", "Potency": "inconclusive: 16.4 µM [cytotoxic, partial curve, poor fit]"}
{"smiles": "COc1ccc(-n2nc(C(=O)N3CCCC(C)C3)c3c4ccccc4n(C)c3c2=O)cc1", "note": "(centres undefined)", "Potency": "inactive"}
{"smiles": "Cc1cccnc1NC(=S)NCCc1ccccc1", "Potency": "inactive"}
{"smiles": "COc1ccc(CNC(=O)CN(C(=O)c2cc3sccc3n2C)C2CCCC2)cc1", "Potency": "inconclusive: 9.2 µM [cytotoxic, partial curve, poor fit]"}
{"smiles": "N=c1c(C(=O)NCCc2ccccc2)cc2c(=O)n3ccccc3nc2n1Cc1ccco1", "Potency": "inconclusive: 0.291 µM [cytotoxic, partial curve, poor fit]"}
{"smiles": "Cc1ccc(NC(=O)Nc2cnccn2)cc1", "Potency": "inactive"}
{"smiles": "CCOC(=O)c1cc2c(=O)n3ccccc3nc2n(C(C)C)c1=NC(=O)c1cc2ccccc2o1", "Potency": "inactive"}
{"smiles": "c1ccc2c(c1)nnn2Cc1nnc2sc(-c3ccc4c(c3)OCCO4)nn12", "Potency": "inactive"}
{"smiles": "Cc1cccc(C)c1NC(=O)C(c1ccnc2ccccc12)n1c(=O)c(-c2ccccc2)nc2ccccc21", "note": "(centres undefined)", "Potency": "inconclusive: 20.6 µM [cytotoxic, partial curve, poor fit]"}
{"smiles": "COc1cc(-c2cc(NC(C)=O)c3ncc(-c4ccccc4)n3c2)cc(OC)c1OC", "Potency": "inconclusive: 29.1 µM [cytotoxic, single point]"}
{"smiles": "CCc1cc(=O)oc2cc(C)c(CN3CCCC3)c(O)c12", "Potency": "inconclusive: 8.2 µM [cytotoxic, partial curve]"}
{"smiles": "COc1cc(/C=N/NC(=O)c2cccc([N+](=O)[O-])c2)ccc1OCc1ccccc1", "Potency": "inconclusive: 6.51 µM [cytotoxic, full curve, poor fit]"}
{"smiles": "CC1=Nn2c(nnc2-c2ccc(F)cc2)SC1", "Potency": "inactive"}
{"smiles": "O=C(CNC(=O)c1ccccc1F)NC1CCN(Cc2ccccc2)CC1", "Potency": "inactive"}
{"smiles": "COc1ccc(-n2ccnc(NCc3ccccc3OC)c2=O)cc1", "Potency": "inactive"}
{"smiles": "OCCNc1nc(-c2cccnc2)nc2ccccc12", "Potency": "inactive"}
{"smiles": "CCC1CCC2(CC1)NC(=O)N(CC(=O)Nc1cc(C)on1)C2=O", "note": "(centres undefined)", "Potency": "inconclusive: 29.1 µM [cytotoxic, single point]"}
{"smiles": "COc1ccc(-c2cc(C(F)(F)F)nc(S(C)(=O)=O)n2)cc1", "Potency": "inconclusive: 18.4 µM [cytotoxic, single point]"}
{"smiles": "O=C(Nc1ccc(Cl)cn1)c1ccc([N+](=O)[O-])o1", "Potency": "inconclusive: 16.4 µM [cytotoxic, single point]"}
{"smiles": "CCOC(=O)c1sc2ccccc2c1S(=O)(=O)Nc1ccc(CC)cc1", "Potency": "inconclusive: 23.1 µM [cytotoxic, single point]"}
{"smiles": "CC(C(=O)Nc1ccc(F)c(F)c1F)N(C)Cc1cccs1", "note": "(centres undefined)", "Potency": "inconclusive: 2.31 µM [cytotoxic, full curve, poor fit]"}
{"smiles": "COc1ccc(N(CC(=O)NC2CCCC2)C(=O)Cn2nnc(-c3ccc(C)o3)n2)cc1", "Potency": "inconclusive: 18.4 µM [cytotoxic, partial curve]"}
{"smiles": "O=C(CSc1nnc(C2COc3ccccc3O2)o1)N1CCCCC1", "note": "(centres undefined)", "Potency": "inactive"}
{"smiles": "N#Cc1ccccc1NC(=O)CNc1ccccc1N1CCCCC1", "Potency": "active: 20.6 µM"}
{"smiles": "COC(=O)C1=CN(Cc2ccc(OC)c(OC)c2)C=C(C(=O)OC)C1c1cccs1", "Potency": "inconclusive: 3.26 µM [cytotoxic, full curve]"}
{"smiles": "COc1ccccc1OCCCn1cc(C#N)c2ccccc21", "Potency": "active: 5.17 µM"}
{"smiles": "COc1ccc(-c2cc(=O)[nH]c(NCc3ccccc3)n2)cc1", "Potency": "inconclusive: 18.4 µM [cytotoxic, partial curve, poor fit]"}
{"smiles": "Cc1cccc(/C=N/NC(=O)C(C)Nc2cccc3ccccc23)n1", "note": "(centres undefined)", "Potency": "inconclusive: 20.6 µM [cytotoxic, single point]"}
{"smiles": "COc1ccc(-c2c(-c3cc(OC)c(OC)c(OC)c3)noc2C)cn1", "Potency": "active: 1.64 µM and inconclusive: 2.91 µM [cytotoxic, full curve, poor fit]"}
{"smiles": "CCc1cc2cc(C)cc(C)c2nc1Cl", "Potency": "inactive"}
{"smiles": "CN1CCc2c(c3cnc4cc(Cl)ccc4c3n2C)C1", "Potency": "inactive"}
{"smiles": "Cc1ccc(S(=O)(=O)NC(CC(C)C)C(=O)NCC(c2ccco2)N2CCCCC2)cc1", "note": "(centres undefined)", "Potency": "inconclusive: 29.1 µM [cytotoxic, single point]"}
{"smiles": "COc1ccc(NS(=O)(=O)c2cc(Br)cc3c2N(C(=O)C2CC2)CC3)cc1OC", "Potency": "inconclusive: 3.26 µM [cytotoxic, partial curve, poor fit]"}
{"smiles": "O=C(NCCCN1CCOCC1)c1ccc(CSc2ccc(Cl)cc2)cc1", "Potency": "inconclusive: 4.61 µM [cytotoxic, full curve, poor fit]"}
{"smiles": "CCCCN(CCCC)CCNC(=O)Cn1nc(C)n2c(cc3sccc32)c1=O", "Potency": "inactive"}
{"smiles": "O=C(CCC(=O)c1cccs1)NNC(=O)c1ccccc1Cl", "Potency": "inconclusive: 29.1 µM [rising, single point]"}
{"smiles": "COc1cc2c(cc1OC)C(c1cccs1)N(C(=S)NC(C)C)CC2", "note": "(centres undefined)", "Potency": "inconclusive: 13 µM [cytotoxic, partial curve]"}
{"smiles": "COc1ccc(-c2c(N)cnc(C(=O)O)c2C)c(OCc2ccccc2)c1OC", "Potency": "inconclusive: 2.31 µM [cytotoxic, full curve]"}
{"smiles": "C=CCN(c1ccc(C(=O)Nc2cccc([N+](=O)[O-])c2)cc1)S(C)(=O)=O", "Potency": "inconclusive: 23.1 µM [cytotoxic, single point]"}
{"smiles": "CCOC(CNC(=O)CN1C(=O)COc2ccc(S(=O)(=O)N3CCOCC3)cc21)OCC", "Potency": "inconclusive: 4.61 µM [rising, full curve, poor fit]"}
{"smiles": "O=C(CSc1nnc(SCc2ccccc2)s1)NNC(=S)Nc1ccccc1", "Potency": "inconclusive: 23.1 µM [cytotoxic, partial curve]"}
{"smiles": "COc1ccccc1C=NN=C1c2ccccc2-c2ccccc21", "Potency": "inconclusive: 29.1 µM [cytotoxic, partial curve, poor fit]"}
{"smiles": "O=c1[nH]ncc(N2CCN(Cc3ccccc3)CC2)c1Cl", "Potency": "inactive"}
{"smiles": "S=C(Nc1ccc(Oc2ccccc2)cc1)NC1CCCC1", "Potency": "inconclusive: 16.4 µM [cytotoxic, single point]"}
{"smiles": "CC1CCCCN1S(=O)(=O)c1ccc(C(=O)Nc2nnc(-c3ccncc3)o2)cc1", "note": "(centres undefined)", "Potency": "inconclusive: 8.2 µM [cytotoxic, partial curve]"}
{"smiles": "CC(=O)c1ccccc1N(C(=O)c1ccco1)C(C(=O)NC1CCCC1)c1ccc(C)cc1", "note": "(centres undefined)", "Potency": "inactive"}
{"smiles": "CC(C)(C)c1ccccc1NC(=S)NC1CCCCC1", "Potency": "inconclusive: 18.4 µM [cytotoxic, single point]"}
{"smiles": "CCN(c1ccccc1)S(=O)(=O)c1ccc(Oc2ccc(C(C)=O)cc2OC)nc1", "Potency": "inconclusive: 16.4 µM [cytotoxic, single point]"}
{"smiles": "Cc1ccccc1NC(=O)c1cc(S(=O)(=O)N2CCCCC2)cs1", "Potency": "inconclusive: 32.6 µM [cytotoxic, single point]"}
{"smiles": "O=C(c1cc(N2C(=O)C3C4CCC(C4)C3C2=O)ccc1Cl)N1CCN(c2ccccc2F)CC1", "note": "(centres undefined)", "Potency": "active: 4.11 µM"}
{"smiles": "COC(=O)c1ccc(N2C(c3cccc(OC)c3)=Cc3ccc(F)cc3C2c2c(C)[nH]c3ccccc23)cc1", "note": "(centres undefined)", "Potency": "inactive"}
{"smiles": "Fc1ccc(Nc2ncnc3onc(-c4cccc(Cl)c4)c23)c(F)c1", "Potency": "inactive"}
{"smiles": "CCc1cc2c(=O)c(-c3ccc4c(c3)OCCO4)coc2cc1OC(=O)c1ccco1", "Potency": "inconclusive: 29.1 µM [cytotoxic, single point]"}
{"smiles": "CN1CCN(/N=C/c2ccc(-c3ccc([N+](=O)[O-])cc3Cl)o2)CC1", "Potency": "inactive"}
{"smiles": "COc1ccc(NC(=O)CS(=O)c2ccc(F)cc2)cc1", "note": "(centres undefined)", "Potency": "inconclusive: 16.4 µM [rising, single point]"}
{"smiles": "CCCCn1c(=O)n(C)c(=O)c2c(C(F)(F)F)cc(-c3ccncc3)nc21", "Potency": "inconclusive: 15.8 µM [cytotoxic, single point]"}
{"smiles": "CCCc1cc(=O)oc2cc(OCC(=O)NCC3CCC(C(=O)O)CC3)ccc12", "note": "(centres undefined)", "activity change, negative = cytotoxicity": "inconclusive: 2.21%"}
{"smiles": "O=C(NNC(=O)c1sccc1-n1cccc1)c1cccc(Cl)c1", "Potency": "inconclusive: 20.6 µM [cytotoxic, single point]"}
{"smiles": "CC(C)c1nc(SCC(=O)N2CCN(c3ccccc3)CC2)c2c(=O)n(C)c(=O)n(C)c2n1", "Potency": "inconclusive: 23.1 µM [rising, single point]"}
{"smiles": "CN(C)C(CNC(=O)C1CCN(S(=O)(=O)c2ccc(Cl)cc2)CC1)c1ccccc1", "note": "(centres undefined)", "Potency": "inactive"}
{"smiles": "O=C(NCCn1cc(SCc2ccccc2Cl)c2ccccc21)c1cccs1", "Potency": "inconclusive: 29.1 µM [cytotoxic, single point]"}
{"smiles": "Cc1cc(C)cc(NC(=O)Cn2cc(S(=O)(=O)NC(C)(C)C)c(S(=O)(=O)NC(C)(C)C)c2)c1", "Potency": "inconclusive: 16.4 µM [cytotoxic, partial curve, poor fit]"}
{"smiles": "O=C(Nc1ccccc1Cl)C1CCN(c2nc3ccccc3nc2C(F)(F)F)CC1", "Potency": "inactive"}
{"smiles": "CC(C)=CCc1c(O)cc2oc3c(CC=C(C)C)c(O)c(O)c(CC=C(C)C)c3c(=O)c2c1O", "Potency": "inconclusive: 16.4 µM [cytotoxic, single point]"}
{"smiles": "O=C(NCCN1CCOCC1)C1CC(=O)N(c2ccc(Cl)cc2)C1", "note": "(centres undefined)", "Potency": "inconclusive: 29.1 µM [rising, single point]"}
{"smiles": "COc1ccc(NC(=S)NCc2cccnc2)cc1", "Potency": "inconclusive: 29.1 µM [rising, single point]"}
{"smiles": "CCOC(=O)N1CCN(C(=O)CSc2ccc(-c3cccc(OC)c3)nn2)CC1", "Potency": "inconclusive: 5.8 µM [cytotoxic, partial curve]"}
{"smiles": "COc1ccc(C)cc1NC(=O)NC1CC(=O)N(c2ccc3c(c2)OCCO3)C1", "note": "(centres undefined)", "Potency": "inactive"}
{"smiles": "CCCCCCOC(=O)NCC(O)c1ccccc1", "note": "(centres undefined)", "Potency": "inconclusive: 23.1 µM [cytotoxic, single point]"}
